± gives the standard deviation.
Assay: chemical recovery from spiked human plasma; higher = better extraction
Details: pooled human plasma; extraction method: SPE only (HLB 96-well)
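Note: plasma spiked with over 400 chemicals, quantified by LC-HRMS and GC-HRMS via internal standard calibration against matrix-matched unspiked plasma extracts plus spike mix.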

Compound `CC(C)(C)c1ccc(O)cc1` [4-tert-Butylphenol] has a chemical recovery of 23 ± 4.3%.

From the supplement of paper PMC10702517
